Read-outs that look alike come from different tables or passages of the source. These are yes or no findings as the source states them, for the method shown. In cells and extracts the contact can be indirect. Here binding means that the protein was enriched with, or labelled near, the bait; the list need not be complete. For some assays here: No binding means not detected with the bait.

Data on two molecules can be found in paper doi:10.1101/266833.

Assay in all cases: affinity purification with mass spectrometry
Assay [1] has as its target T1, TAP-Upf1-FL (S. cerevisiae) (UniProt P30771).
T1 sequence: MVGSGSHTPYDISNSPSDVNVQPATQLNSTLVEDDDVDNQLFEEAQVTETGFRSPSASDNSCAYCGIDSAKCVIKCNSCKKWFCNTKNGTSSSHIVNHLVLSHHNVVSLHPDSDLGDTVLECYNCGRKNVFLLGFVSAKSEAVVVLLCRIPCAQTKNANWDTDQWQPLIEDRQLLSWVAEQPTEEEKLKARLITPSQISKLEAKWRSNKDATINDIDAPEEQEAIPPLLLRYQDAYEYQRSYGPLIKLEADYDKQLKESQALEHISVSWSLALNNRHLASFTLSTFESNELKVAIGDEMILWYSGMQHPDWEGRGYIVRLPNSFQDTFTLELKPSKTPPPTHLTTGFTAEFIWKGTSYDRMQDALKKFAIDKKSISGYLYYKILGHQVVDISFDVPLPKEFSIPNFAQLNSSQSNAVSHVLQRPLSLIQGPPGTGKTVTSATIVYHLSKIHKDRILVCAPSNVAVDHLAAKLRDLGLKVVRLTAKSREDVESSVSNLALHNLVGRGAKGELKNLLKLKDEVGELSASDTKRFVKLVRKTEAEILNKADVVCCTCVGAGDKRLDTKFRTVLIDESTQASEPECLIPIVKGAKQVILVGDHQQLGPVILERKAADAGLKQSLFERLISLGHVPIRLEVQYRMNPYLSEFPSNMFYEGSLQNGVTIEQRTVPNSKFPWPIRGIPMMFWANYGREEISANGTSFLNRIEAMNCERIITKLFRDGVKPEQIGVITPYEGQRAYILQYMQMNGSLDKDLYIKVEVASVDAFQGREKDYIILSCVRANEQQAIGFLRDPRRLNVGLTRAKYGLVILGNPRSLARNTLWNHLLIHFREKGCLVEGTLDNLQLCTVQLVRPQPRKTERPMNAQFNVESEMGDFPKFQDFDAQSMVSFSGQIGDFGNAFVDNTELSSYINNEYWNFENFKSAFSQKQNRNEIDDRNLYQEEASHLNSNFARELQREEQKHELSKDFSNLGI

Assay [2] concerns the target T1, TAP-Upf1-FL (S. cerevisiae). The source holds these as a separate data set.
Another assay deals with T2, Upf2-TAP (S. cerevisiae) (UniProt P38798).
T2 sequence: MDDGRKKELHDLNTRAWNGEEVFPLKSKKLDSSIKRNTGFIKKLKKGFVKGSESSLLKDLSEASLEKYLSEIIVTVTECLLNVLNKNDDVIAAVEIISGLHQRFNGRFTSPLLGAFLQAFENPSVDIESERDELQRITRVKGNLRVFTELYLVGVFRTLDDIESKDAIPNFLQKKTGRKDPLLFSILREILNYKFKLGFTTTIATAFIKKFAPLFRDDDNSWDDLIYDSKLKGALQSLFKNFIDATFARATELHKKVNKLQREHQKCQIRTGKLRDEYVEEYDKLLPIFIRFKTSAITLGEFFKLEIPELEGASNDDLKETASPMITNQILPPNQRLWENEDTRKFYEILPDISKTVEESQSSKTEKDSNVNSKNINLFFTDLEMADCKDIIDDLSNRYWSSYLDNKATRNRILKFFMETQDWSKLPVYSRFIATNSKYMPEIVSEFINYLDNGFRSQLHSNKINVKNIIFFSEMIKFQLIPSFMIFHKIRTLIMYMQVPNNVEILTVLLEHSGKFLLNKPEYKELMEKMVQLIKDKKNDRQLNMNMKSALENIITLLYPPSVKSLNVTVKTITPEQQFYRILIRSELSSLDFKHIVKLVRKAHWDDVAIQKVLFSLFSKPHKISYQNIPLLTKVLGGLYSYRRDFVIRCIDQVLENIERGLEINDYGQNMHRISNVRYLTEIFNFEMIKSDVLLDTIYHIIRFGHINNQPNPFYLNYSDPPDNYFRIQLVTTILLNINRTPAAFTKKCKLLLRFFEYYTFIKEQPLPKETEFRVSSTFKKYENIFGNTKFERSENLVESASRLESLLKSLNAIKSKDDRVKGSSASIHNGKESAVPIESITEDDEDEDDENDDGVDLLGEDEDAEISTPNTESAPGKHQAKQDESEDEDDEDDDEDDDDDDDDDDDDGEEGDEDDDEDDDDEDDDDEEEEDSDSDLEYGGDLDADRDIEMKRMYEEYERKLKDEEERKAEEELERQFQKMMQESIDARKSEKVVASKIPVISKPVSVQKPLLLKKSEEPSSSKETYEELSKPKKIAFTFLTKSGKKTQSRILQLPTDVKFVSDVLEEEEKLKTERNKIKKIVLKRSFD

The next assay concerns the target T3, Upf3-TAP (S. cerevisiae) (UniProt P48412).
T3 sequence: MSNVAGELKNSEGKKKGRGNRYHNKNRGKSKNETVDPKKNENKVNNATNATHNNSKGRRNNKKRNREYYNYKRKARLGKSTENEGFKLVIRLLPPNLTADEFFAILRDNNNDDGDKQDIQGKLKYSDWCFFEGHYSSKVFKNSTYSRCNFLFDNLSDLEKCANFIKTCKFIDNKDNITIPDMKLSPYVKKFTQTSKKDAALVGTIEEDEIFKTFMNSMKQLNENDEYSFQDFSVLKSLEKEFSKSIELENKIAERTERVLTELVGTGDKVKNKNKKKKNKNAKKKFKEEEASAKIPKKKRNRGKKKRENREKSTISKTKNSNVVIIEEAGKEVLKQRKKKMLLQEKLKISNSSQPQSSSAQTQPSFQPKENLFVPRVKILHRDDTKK

B1: Ebs1 (protein, UniProt Q03466 1-884)
chain: MEPSNTQKEDLPTAFNGIKSQLNSILKSNQLFQDYALLNGFLAFVHSKLNAAILTSIESQCGKSFAADLDSFDQSSISSILDFSWESVHYPIFKWFQMWRNYILFEKENKKQQTKFIDFRKMNSKMLKFFKTVQNFYVNVINTVYKKYDISVLLPKRIIQDLKLSDIENTTNVGDILAVKTFNSSSPLAHLIPTLFHRCLLFLGTAYRYKTLLEEISNKYSISNFKKSLDFFRLASLVLPSAGETYSQAGAIFLQTGNLGIAVFNFVKGMMTKMPSPVSIKNFGALMVDNKSSLNRSLHTTIMNTYLQESKGPRTPAKEILEFYFLGLFGSVWSPTSWRDDTKPNQLNNGIKLRHLENALYETMSARYLNNIKTIFHNLIITIGGFHLLLKRRSDVSAKTLKDLRSNELDYLNFAFKYIAHILNDIVKESWSENPEVSEILGMVRIINCWIKANPMVLQYSQSNLEFVNALAYLINDIVKKKPSPSFSITEHIPKRTYWFEEDLMVKGLSFVNFQLSDFDDYEKILEMDHSLDRLIGNPPLCDKLSASSEMLLRLQAVVNISSQLLQNNNCGVEWSDNKSRYIFNKKIGFKETVKNSMKTSKQSNEKAKLQRKNKPSTTNGSISMADLERQMRSSSLDSFSPTMGYSGSSVPMAPDTFNVKPSGTITGNKVNVELLKIELSGQNADGAITNISPGYSNAAISSSNSTDESSFDLNNILSSMQQKHAEKSFAKSMQGVNEQIPANDVCHQAQRPMQGGLYSSQQPSSMSSLNSAYQNASMPPSASMVSYPYPFLNQQGQGVFPPYNAQNLQWQSEAYSLKSMNFANPTWLGDQYQTSAPSSAYAQAQRQMFQQPMQQDVGKYMQFPFDAQSNTDSMRGNSRNNMF
With B1, the binding entry in assay [1] is “binds”; in assay [2], “binds”; in the assay with Upf2-TAP (S. cerevisiae) it was “no binding”; with Upf3-TAP (S. cerevisiae), “no binding”.

B2: Nmd4 (protein, UniProt Q12129 1-218)
chain: MTQYNFIIDASAFEKGLGNIKRWCSDCTEAVTLNFYIPTFTLNELDFLQQRRKSFAARESLKFIDRLDDSKFANLKVFIEFPEVLDIILWSDVMEHNDSSGKINIAKLPKRLKNLLKSCIYKCYLEGNEGLHWFLISEDPQIREMAMQCNIPSCSIVDVDSILSKDMNDKSFRESEKFNNMMLKNGTKEESENGREIIRTNFNKTVYASRGTGELWSP
With B2, the binding result is “binds” in assay [1], “binds” in assay [2], “no binding” with Upf2-TAP (S. cerevisiae) and “no binding” with Upf3-TAP (S. cerevisiae).
